This is an account of results in the supplement of paper PMC12595434, “Development of retinoid nuclear receptor pathway antagonists through targeting aldehyde dehydrogenase 1A3” (iScience, 2025).

By UniProt entry, the sequences of proteins in these tests, tags left out. Where a name states a change or a piece, a line headed by the entry shows the natural chain unless it says otherwise.
UniProt Q8N8Q8: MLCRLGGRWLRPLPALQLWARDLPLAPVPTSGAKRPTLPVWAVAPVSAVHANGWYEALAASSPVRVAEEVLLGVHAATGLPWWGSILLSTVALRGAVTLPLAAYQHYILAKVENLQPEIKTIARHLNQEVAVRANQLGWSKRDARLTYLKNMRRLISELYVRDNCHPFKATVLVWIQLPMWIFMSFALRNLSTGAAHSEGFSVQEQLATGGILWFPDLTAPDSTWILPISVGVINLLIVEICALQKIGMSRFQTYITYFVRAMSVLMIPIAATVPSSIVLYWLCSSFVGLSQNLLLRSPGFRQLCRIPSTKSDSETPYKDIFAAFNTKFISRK
UniProt Q8N8S7: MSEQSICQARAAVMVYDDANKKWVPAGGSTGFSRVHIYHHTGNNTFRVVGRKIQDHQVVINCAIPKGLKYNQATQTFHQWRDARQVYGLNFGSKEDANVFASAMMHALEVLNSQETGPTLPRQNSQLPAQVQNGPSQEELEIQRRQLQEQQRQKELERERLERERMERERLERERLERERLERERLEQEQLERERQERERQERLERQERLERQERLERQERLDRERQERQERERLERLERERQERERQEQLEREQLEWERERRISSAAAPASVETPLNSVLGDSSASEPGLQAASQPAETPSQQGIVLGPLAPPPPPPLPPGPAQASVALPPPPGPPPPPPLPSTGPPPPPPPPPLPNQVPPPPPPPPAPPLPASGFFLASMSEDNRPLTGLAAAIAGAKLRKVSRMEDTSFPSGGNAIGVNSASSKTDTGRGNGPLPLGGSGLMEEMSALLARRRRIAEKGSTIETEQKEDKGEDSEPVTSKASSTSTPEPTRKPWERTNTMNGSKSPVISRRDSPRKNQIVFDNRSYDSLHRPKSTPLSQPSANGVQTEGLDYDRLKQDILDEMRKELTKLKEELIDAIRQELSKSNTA
UniProt Q8NCH0: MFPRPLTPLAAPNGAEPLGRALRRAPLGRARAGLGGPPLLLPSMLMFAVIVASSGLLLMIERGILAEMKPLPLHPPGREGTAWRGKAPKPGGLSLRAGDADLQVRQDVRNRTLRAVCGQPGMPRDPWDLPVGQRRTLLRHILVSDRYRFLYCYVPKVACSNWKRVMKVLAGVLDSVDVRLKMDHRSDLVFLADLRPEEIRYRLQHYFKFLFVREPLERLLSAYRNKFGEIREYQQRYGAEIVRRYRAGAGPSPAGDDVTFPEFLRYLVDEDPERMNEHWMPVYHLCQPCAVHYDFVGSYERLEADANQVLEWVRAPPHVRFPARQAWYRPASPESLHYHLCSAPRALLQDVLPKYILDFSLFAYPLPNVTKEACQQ
UniProt Q8TCD5: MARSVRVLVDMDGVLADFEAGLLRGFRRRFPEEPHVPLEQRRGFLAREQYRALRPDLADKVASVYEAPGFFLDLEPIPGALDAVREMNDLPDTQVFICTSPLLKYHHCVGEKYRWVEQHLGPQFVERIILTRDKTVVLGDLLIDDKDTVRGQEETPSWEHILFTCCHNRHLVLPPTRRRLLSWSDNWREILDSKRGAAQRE
UniProt Q8WUI4: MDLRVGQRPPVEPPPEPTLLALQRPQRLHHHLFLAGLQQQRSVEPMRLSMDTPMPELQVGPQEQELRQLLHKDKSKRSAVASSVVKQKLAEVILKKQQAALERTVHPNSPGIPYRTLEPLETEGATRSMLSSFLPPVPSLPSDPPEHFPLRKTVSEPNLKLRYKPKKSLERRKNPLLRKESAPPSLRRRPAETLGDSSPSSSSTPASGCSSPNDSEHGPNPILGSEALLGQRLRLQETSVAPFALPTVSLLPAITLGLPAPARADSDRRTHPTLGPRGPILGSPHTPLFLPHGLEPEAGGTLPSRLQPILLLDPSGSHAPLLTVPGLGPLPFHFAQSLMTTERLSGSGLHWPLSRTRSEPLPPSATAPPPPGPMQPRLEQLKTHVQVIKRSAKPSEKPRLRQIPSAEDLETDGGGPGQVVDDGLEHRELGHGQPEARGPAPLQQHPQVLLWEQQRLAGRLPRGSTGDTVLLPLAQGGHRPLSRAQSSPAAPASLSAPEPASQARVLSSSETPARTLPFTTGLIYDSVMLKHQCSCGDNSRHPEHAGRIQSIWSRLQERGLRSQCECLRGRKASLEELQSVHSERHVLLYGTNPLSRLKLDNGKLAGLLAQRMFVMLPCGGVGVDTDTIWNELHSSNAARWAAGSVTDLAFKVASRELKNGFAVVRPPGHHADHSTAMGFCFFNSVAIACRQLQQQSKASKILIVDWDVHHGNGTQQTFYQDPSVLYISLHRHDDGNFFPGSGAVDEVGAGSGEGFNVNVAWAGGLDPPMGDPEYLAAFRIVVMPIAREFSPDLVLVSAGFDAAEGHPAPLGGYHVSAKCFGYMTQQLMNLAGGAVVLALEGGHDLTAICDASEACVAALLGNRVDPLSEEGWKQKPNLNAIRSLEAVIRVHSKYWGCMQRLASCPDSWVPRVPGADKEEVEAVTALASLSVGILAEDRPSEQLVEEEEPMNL
UniProt Q8NBT2: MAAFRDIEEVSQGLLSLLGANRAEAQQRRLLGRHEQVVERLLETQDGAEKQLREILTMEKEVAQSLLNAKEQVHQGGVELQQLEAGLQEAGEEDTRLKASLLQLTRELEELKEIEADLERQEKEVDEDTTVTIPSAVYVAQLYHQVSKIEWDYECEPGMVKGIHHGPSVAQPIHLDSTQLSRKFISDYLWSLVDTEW
UniProt Q8WUM4: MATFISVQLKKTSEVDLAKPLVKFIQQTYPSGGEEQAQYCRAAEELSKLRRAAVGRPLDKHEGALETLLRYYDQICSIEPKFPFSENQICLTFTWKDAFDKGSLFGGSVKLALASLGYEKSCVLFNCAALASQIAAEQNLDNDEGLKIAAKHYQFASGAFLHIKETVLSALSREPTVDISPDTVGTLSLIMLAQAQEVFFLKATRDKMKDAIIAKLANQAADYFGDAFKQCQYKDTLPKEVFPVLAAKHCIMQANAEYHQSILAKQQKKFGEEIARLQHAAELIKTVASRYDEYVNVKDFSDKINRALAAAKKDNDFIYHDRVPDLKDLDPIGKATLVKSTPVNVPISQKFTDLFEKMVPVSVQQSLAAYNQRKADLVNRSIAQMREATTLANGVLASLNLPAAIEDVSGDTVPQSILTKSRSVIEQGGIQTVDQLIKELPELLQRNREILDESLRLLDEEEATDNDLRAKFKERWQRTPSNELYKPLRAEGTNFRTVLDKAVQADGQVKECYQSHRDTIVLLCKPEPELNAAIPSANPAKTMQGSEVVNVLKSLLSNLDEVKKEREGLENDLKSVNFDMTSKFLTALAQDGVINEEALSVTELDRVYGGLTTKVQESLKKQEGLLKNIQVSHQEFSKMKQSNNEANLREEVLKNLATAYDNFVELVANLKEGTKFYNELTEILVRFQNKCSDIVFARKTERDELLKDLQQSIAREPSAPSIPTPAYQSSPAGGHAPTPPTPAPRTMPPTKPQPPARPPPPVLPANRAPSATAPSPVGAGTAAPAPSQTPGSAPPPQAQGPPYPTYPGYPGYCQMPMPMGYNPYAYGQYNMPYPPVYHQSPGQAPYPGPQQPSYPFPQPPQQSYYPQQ
UniProt Q8TB03: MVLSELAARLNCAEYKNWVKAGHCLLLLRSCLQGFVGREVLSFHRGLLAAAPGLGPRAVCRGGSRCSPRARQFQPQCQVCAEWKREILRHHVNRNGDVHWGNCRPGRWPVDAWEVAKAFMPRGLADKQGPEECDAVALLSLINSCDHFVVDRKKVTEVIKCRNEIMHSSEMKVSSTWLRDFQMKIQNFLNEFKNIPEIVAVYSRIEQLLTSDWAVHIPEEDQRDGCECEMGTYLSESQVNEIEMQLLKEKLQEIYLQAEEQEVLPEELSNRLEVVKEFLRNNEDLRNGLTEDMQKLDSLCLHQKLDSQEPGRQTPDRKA
UniProt Q8WV92, whole entry: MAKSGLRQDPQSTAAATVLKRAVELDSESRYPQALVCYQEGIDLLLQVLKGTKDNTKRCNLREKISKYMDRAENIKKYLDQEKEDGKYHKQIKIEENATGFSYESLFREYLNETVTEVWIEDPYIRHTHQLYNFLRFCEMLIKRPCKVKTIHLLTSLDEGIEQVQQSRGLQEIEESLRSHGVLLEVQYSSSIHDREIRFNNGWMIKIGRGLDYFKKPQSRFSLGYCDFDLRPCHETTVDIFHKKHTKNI
UniProt Q8WW01: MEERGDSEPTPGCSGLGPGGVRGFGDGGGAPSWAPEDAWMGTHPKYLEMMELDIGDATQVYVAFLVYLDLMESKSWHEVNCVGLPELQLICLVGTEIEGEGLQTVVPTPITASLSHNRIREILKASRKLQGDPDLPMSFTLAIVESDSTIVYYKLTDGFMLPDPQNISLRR
UniProt Q8NE86: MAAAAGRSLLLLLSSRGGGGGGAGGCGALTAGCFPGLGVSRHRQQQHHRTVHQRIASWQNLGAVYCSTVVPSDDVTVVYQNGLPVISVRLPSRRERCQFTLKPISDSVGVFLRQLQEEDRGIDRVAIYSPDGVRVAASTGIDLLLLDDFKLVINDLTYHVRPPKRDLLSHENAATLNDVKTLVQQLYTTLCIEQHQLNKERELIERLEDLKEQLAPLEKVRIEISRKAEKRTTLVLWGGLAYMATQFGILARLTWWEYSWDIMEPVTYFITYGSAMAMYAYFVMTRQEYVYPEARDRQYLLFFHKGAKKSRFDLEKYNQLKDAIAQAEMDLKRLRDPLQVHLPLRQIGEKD
UniProt Q8WVJ2: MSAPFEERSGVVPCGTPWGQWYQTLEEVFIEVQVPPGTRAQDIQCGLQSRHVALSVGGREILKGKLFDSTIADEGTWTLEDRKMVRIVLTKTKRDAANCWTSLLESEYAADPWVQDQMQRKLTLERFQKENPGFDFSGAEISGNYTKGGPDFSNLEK
UniProt Q8N9N5: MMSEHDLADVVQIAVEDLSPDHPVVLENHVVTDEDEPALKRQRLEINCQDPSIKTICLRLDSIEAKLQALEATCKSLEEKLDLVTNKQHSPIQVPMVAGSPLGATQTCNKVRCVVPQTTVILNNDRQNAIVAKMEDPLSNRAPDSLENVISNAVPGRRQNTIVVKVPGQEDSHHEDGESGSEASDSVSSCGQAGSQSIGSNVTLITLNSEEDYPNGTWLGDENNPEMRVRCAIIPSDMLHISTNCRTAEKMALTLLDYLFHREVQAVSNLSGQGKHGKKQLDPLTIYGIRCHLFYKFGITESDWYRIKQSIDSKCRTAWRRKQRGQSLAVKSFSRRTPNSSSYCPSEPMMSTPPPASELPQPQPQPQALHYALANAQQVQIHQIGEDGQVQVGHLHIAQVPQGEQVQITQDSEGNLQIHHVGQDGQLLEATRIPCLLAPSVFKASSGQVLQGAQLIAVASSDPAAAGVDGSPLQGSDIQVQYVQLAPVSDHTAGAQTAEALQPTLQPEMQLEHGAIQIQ
UniProt Q8NDZ4: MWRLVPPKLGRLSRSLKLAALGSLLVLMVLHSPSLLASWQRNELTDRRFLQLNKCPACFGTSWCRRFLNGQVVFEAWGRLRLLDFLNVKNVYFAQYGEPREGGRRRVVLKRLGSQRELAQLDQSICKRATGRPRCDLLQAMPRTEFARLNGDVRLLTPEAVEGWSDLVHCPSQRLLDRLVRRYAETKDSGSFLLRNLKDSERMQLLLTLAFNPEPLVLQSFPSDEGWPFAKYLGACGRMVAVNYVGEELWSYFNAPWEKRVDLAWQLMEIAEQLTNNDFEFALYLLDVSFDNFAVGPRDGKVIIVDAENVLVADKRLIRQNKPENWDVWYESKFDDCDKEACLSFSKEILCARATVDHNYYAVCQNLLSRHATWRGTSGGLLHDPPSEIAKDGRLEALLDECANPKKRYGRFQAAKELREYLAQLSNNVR
UniProt Q8TEL6: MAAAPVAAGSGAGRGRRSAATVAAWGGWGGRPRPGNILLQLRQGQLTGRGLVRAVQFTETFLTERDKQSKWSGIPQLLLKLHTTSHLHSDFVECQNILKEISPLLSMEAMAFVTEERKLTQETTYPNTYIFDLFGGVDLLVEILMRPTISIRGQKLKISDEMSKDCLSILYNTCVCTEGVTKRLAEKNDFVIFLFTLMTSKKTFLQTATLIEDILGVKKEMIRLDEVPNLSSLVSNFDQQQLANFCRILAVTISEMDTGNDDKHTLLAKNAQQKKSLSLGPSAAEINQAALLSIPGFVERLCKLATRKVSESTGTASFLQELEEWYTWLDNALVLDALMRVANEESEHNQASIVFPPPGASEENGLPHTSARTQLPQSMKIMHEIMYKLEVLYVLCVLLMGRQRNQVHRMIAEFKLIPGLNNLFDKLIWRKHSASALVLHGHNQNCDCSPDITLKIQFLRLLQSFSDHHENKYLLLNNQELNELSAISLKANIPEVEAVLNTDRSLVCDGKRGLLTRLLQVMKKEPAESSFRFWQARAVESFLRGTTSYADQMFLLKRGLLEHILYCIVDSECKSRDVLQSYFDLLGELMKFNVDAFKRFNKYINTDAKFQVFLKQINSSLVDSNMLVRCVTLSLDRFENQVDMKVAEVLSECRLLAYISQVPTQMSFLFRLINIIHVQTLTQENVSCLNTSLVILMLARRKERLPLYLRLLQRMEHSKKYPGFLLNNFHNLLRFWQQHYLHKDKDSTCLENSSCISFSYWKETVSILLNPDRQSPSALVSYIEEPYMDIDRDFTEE

Some of the results follow. This is a noisy data set.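 Many melting curves are irregular; where none melted, Tm was taken as 64 °C.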

Compound in the experiment: CCc1cnccc1C(=O)Nc1cc2c(cc1F)NC(=O)CC2
Put plainly: melting temperature shift (DMSO Tm minus MBE1-treated Tm) in cellular thermal proteome profiling; higher = less thermal stabilization by MBE1 (negative = stabilized by MBE1). The conditions noted are these: A375.

Turning to UniProt Q8N8Q8, the melting temperature shift was -1.35 °C (MBE1 concentration: 100 nM) and -1.67 °C (MBE1 concentration: 1 uM).
UniProt Q8TE99: the melting temperature shift is, setting by setting: (MBE1 concentration: 100 nM) -1.66 °C; (MBE1 concentration: 1 uM) 0.195 °C.
For UniProt Q8TAM2, the melting temperature shift runs as follows: (MBE1 concentration: 100 nM) -0.964 °C; (MBE1 concentration: 1 uM) -2.24 °C.
For SUMF1 (UniProt Q8NBK3) the same measures were -0.416 °C and 0.165 °C.
For ENAH (UniProt Q8N8S7) the same measures were -0.235 °C and 0.241 °C.
For the target SMARCC2 (UniProt Q8TAQ2), the melting temperature shift is -0.205 °C (MBE1 concentration: 100 nM) and -0.0769 °C (MBE1 concentration: 1 uM).
For CHST14 (UniProt Q8NCH0), the melting temperature shift is -0.0427 °C (MBE1 concentration: 100 nM) and 0.507 °C (MBE1 concentration: 1 uM).
With NT5C (UniProt Q8TCD5), the melting temperature shift reads like this: (MBE1 concentration: 100 nM) -1.12 °C; (MBE1 concentration: 1 uM) -0.347 °C.
For HDAC7 (UniProt Q8WUI4), the melting temperature shift is, setting by setting: (MBE1 concentration: 100 nM) -1.76 °C; (MBE1 concentration: 1 uM) -1.53 °C.
Regarding SPC24 (UniProt Q8NBT2), the melting temperature shift by setting is: (MBE1 concentration: 100 nM) 0.605 °C; (MBE1 concentration: 1 uM) 0.537 °C.
On to PDCD6IP (UniProt Q8WUM4), for which the melting temperature shift reads like this: (MBE1 concentration: 100 nM) -0.193 °C; (MBE1 concentration: 1 uM) -0.395 °C.
For CXORF38 (UniProt Q8TB03) the same measures were -0.421 °C and -0.0977 °C.
As for MITD1 (UniProt Q8WV92), the melting temperature shift was -0.95 °C (MBE1 concentration: 100 nM) and -0.971 °C (MBE1 concentration: 1 uM).
For UniProt Q8WUA8, the melting temperature shift is -0.66 °C (MBE1 concentration: 100 nM) and 0.295 °C (MBE1 concentration: 1 uM).
As to TSEN15 (UniProt Q8WW01), the melting temperature shift runs as follows: (MBE1 concentration: 100 nM) -1.34 °C; (MBE1 concentration: 1 uM) -1.11 °C.
Taken in the same sequence, the figures for MCU (UniProt Q8NE86) were 0.624 °C and 0.483 °C.
With NUDCD2 (UniProt Q8WVJ2), the melting temperature shift is -0.786 °C (MBE1 concentration: 100 nM) and -0.136 °C (MBE1 concentration: 1 uM).
As to CHTF18 (UniProt Q8WVB6), the melting temperature shift is -0.762 °C (MBE1 concentration: 100 nM) and -0.301 °C (MBE1 concentration: 1 uM).
Turning to UniProt Q8N9N5, the melting temperature shift runs as follows: (MBE1 concentration: 100 nM) 0.102 °C; (MBE1 concentration: 1 uM) -0.352 °C.
With SSH3 (UniProt Q8TE77), the melting temperature shift (MBE1 concentration: 100 nM) worked out at 0.765 °C and the melting temperature shift (MBE1 concentration: 1 uM) was -0.134 °C.
BICD2 (UniProt Q8TD16): the melting temperature shift is, setting by setting: (MBE1 concentration: 100 nM) 0.183 °C; (MBE1 concentration: 1 uM) -0.269 °C.
On to C3ORF58 (UniProt Q8NDZ4), for which the melting temperature shift is -0.41 °C (MBE1 concentration: 100 nM) and 0.519 °C (MBE1 concentration: 1 uM).
In the case of UniProt Q8NHU6, the melting temperature shift reads like this: (MBE1 concentration: 100 nM) -0.457 °C; (MBE1 concentration: 1 uM) -0.701 °C.
For VANGL1 (UniProt Q8TAA9) the same measures were -1.74 °C and -0.354 °C.
Consider UniProt Q8TEL6, for which the melting temperature shift was -2.33 °C (MBE1 concentration: 100 nM) and -1.8 °C (MBE1 concentration: 1 uM).
